Record: PubChem BioAssay AID1259254 (NCATS, 2017)
Here is a random part of about 59,000 reagents. Of all reagents, about 1,550 (2.6%) are marked active. 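G2 share is only a proxy for re-replication; each gene was hit by three separate siRNAs, and active genes were retested.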 The numbers tell different reagents against one gene apart. Further read-outs or replicates are left out here. The record does not give: the amount of reagent.

- Test: 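Genome-wide screen for genes that prevent DNA re-replication in cancer cells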 (primary screen)
- Cell system: human HCT116 colorectal cancer cells
- Reagents: single siRNA against human genes
- Duration: 3 days
- Detection: 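Imaged Hoechst DNA stain sorts each cell into a cycle phase by DNA amount; per plate, G2 fraction set to 0% for non-targeting and 100% for GMNN siRNA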
- Direction: G2 robust z-score and G2 cells, % of GMNN control: higher = more G2 cells, more excess DNA replication
- Hit rule: 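Active siRNAs have a G2 robust z of 5 or more median absolute deviations over the median, which in these data means about 38% or higher of GMNN control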

Against ZNF81 (GeneID 347344) #1, the entry reads G2 robust z-score 0.786; G2 cells, % of GMNN control 8.5; inactive.
ZNF81 (GeneID 347344) #2 showed G2 robust z-score -0.781; G2 cells, % of GMNN control -2.53; inactive.
After knock-down of ZNF81 (GeneID 347344) #3, the record shows G2 robust z-score 0.141; G2 cells, % of GMNN control 3.96; inactive.
Against TSKS (GeneID 60385) #1, the values are G2 robust z-score 3.24; G2 cells, % of GMNN control 25.8; inactive.
TSKS (GeneID 60385) #2 scored G2 robust z-score 1.72; G2 cells, % of GMNN control 15.1; inactive.
Silencing of TSKS (GeneID 60385) #3 gave: G2 robust z-score -0.274; G2 cells, % of GMNN control 1.04; inactive.
With knock-down of BHLHA15 (GeneID 168620) #1 the results were G2 robust z-score 0.7; G2 cells, % of GMNN control 7.89; inactive.
Against BHLHA15 (GeneID 168620) #2 the deposit lists G2 robust z-score -0.931; G2 cells, % of GMNN control -3.59; inactive.
Knock-down of BHLHA15 (GeneID 168620) #3 resulted in: G2 robust z-score 0.0369; G2 cells, % of GMNN control 3.23; inactive.
Silencing of HOOK2 (GeneID 29911) #1 resulted in: G2 robust z-score -0.417; G2 cells, % of GMNN control 0.0333; inactive.
After knock-down of HOOK2 (GeneID 29911) #2, the record shows G2 robust z-score 0.253; G2 cells, % of GMNN control 4.75; inactive.
Knock-down of HOOK2 (GeneID 29911) #3 resulted in: G2 robust z-score 0.061; G2 cells, % of GMNN control 3.4; inactive.
DIRC1 (GeneID 116093) #1 scored G2 robust z-score -0.589; G2 cells, % of GMNN control -1.17; inactive.
Against DIRC1 (GeneID 116093) #2 the deposit lists G2 robust z-score 3.48; G2 cells, % of GMNN control 27.5; inactive.
Knock-down of DIRC1 (GeneID 116093) #3 gave: G2 robust z-score -0.558; G2 cells, % of GMNN control -0.958; inactive.
Against OXA1L (GeneID 5018) #1, the entry reads G2 robust z-score 0.591; G2 cells, % of GMNN control 7.12; inactive.
OXA1L (GeneID 5018) #2 scored G2 robust z-score -0.898; G2 cells, % of GMNN control -3.35; inactive.
For OXA1L (GeneID 5018) #3, the entry reads G2 robust z-score 0.275; G2 cells, % of GMNN control 4.9; inactive.
MAOA (GeneID 4128) #1 showed G2 robust z-score 5.66; G2 cells, % of GMNN control 42.8; active.
MAOA (GeneID 4128) #2 gave G2 robust z-score -0.455; G2 cells, % of GMNN control -0.236; inactive.
MAOA (GeneID 4128) #3 scored G2 robust z-score 3.22; G2 cells, % of GMNN control 25.6; inactive.
INKA2 (GeneID 55924) #1 gave G2 robust z-score 0.666; G2 cells, % of GMNN control 7.65; inactive.
Silencing of INKA2 (GeneID 55924) #2 gave: G2 robust z-score -0.879; G2 cells, % of GMNN control -3.22; inactive.
Against INKA2 (GeneID 55924) #3, the values are G2 robust z-score -0.242; G2 cells, % of GMNN control 1.26; inactive.

Just “G2 cells, % of GMNN control” (3 entries from above):
ZNF81 (GeneID 347344) #3	3.96
TSKS (GeneID 60385) #1	25.8
TSKS (GeneID 60385) #2	15.1
